The record followed here is paper doi:10.1101/2025.04.29.651207.

Protein sequences, listed by entry. Tags and fused reporters are not part of them.
UniProt O94477: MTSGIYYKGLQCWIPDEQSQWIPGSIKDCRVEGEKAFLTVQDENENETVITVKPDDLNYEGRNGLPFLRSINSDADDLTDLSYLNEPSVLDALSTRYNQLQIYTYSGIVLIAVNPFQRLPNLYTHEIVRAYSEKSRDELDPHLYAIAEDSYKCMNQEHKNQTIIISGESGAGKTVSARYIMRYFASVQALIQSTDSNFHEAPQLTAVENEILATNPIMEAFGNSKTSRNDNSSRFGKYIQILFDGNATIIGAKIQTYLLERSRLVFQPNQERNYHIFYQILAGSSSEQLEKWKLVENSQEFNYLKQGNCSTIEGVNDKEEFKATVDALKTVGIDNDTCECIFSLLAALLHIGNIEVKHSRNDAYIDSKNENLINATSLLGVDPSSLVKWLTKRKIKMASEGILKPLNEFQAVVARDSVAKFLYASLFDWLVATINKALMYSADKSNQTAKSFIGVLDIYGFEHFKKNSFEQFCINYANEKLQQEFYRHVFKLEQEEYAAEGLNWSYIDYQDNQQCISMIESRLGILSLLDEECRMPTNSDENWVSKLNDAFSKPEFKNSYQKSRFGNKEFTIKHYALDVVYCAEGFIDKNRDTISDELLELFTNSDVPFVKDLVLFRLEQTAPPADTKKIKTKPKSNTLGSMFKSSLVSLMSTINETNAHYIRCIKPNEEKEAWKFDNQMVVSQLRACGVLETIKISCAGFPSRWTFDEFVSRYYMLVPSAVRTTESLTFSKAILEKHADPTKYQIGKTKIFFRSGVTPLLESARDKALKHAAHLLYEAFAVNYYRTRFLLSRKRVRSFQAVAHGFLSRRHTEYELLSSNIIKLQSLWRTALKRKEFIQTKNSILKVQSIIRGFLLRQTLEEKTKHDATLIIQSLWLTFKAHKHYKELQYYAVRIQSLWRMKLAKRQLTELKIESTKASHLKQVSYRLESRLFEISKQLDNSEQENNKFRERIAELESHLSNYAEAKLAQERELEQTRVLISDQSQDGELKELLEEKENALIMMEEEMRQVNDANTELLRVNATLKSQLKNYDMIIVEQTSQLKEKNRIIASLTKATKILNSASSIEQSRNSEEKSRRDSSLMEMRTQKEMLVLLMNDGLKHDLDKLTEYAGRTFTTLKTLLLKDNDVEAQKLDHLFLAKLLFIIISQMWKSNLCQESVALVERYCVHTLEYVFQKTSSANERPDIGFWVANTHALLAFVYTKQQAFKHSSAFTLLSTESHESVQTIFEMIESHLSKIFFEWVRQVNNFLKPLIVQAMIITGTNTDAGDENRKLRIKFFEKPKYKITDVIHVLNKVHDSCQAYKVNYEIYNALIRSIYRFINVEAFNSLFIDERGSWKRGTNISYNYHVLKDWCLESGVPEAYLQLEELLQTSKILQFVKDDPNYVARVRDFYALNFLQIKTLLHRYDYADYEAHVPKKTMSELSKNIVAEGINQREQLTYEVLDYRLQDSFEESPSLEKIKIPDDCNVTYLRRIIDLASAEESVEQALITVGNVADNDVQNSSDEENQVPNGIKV

For assay [1], the target named is T1, Fus1-sfGFP (full-length formin Fus1) (S. pombe) (UniProt Q10719).
T1 sequence: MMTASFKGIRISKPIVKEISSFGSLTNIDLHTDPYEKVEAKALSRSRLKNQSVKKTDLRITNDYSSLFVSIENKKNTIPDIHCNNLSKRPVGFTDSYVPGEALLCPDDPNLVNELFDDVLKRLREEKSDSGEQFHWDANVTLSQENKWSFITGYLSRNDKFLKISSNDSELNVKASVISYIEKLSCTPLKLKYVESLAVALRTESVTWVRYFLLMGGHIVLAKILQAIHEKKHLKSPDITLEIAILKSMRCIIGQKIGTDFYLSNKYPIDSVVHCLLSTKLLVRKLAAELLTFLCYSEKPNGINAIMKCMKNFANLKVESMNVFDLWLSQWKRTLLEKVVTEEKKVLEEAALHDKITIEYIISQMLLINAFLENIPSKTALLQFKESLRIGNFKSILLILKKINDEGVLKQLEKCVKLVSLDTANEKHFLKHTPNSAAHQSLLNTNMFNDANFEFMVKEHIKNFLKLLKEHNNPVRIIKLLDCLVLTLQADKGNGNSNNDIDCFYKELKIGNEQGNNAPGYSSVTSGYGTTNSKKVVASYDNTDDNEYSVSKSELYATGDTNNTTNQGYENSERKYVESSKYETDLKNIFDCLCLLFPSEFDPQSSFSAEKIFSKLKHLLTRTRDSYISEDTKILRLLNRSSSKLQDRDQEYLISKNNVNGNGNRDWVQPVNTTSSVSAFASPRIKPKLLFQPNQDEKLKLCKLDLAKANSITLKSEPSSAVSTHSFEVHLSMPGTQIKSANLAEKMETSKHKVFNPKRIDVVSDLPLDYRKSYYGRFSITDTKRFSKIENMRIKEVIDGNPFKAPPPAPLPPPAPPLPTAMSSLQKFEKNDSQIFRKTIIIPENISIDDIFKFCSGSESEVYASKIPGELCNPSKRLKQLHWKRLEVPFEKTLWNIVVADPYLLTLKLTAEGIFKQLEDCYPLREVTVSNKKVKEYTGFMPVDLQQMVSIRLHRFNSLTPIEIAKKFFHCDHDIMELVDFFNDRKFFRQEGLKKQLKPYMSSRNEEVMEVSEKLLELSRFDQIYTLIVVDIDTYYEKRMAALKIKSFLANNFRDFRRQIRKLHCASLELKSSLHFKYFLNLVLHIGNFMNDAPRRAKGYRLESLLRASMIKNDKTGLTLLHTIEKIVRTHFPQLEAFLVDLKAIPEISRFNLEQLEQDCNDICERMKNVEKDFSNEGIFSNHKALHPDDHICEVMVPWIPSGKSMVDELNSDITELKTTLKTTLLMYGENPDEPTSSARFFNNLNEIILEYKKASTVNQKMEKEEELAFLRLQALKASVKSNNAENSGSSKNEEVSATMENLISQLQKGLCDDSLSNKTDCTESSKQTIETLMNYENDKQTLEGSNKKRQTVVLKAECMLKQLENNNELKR
Nature of the assay: co-IP.

Assay [2] has as its target T2, Fus1^1-518-sfGFP (Fus1 N-terminus, aa 1-518) (S. pombe) (UniProt Q10719).
T2 sequence: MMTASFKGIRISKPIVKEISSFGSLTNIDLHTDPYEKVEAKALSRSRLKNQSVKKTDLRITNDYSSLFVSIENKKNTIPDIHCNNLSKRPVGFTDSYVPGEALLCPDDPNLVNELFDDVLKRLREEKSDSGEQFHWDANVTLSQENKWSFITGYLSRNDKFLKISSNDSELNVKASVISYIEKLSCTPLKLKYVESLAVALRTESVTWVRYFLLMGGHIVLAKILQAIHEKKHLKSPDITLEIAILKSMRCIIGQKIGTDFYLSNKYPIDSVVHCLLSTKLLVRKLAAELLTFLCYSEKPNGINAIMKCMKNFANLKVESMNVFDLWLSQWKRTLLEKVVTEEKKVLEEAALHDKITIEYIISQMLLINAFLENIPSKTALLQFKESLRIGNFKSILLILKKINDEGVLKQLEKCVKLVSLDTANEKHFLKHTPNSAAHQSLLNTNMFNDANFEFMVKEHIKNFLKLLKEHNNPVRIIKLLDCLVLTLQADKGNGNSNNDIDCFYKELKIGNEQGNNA
Briefly: co-IP.

No constants are given. Whether binding was seen depends on the method and setting. In cells and extracts the contact can be indirect. Some entries that bind do so weakly or less than the wild type. Sequences can lack the tags named with a protein.

In the case of “Myo52-3xmyc (type V myosin Myo52) (from UniProt O94477 1-1516)”, the binding entry in assay [1] and in assay [2] was “binds” each time.
